This test deals with T1, FM-CATH (F. multistriata).
T1 sequence (peptide): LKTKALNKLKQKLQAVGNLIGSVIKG
The test is described as follows: SPR; SPRi (PlexArray HT A100, bare gold chip); FM-CATH (2 mM) and BSA in PBS spotted on the chip, blocked with 1 M ethanolamine pH 8.5; different concentrations of proteases flowed over at 2 uL/s; regeneration with 0.5% H3PO4; both purified.

Amino acid sequences for entries named in this document (tags omitted). Residues count along the entry.
UniProt P20231, residues 31-275: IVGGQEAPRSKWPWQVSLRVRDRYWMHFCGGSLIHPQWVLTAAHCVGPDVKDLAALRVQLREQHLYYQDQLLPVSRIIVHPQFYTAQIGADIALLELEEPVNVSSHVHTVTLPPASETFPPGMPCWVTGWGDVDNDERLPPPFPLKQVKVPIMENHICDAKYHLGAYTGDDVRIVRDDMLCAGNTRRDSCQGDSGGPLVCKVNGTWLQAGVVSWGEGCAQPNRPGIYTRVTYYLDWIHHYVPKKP
UniProt P02769, residues 25-607: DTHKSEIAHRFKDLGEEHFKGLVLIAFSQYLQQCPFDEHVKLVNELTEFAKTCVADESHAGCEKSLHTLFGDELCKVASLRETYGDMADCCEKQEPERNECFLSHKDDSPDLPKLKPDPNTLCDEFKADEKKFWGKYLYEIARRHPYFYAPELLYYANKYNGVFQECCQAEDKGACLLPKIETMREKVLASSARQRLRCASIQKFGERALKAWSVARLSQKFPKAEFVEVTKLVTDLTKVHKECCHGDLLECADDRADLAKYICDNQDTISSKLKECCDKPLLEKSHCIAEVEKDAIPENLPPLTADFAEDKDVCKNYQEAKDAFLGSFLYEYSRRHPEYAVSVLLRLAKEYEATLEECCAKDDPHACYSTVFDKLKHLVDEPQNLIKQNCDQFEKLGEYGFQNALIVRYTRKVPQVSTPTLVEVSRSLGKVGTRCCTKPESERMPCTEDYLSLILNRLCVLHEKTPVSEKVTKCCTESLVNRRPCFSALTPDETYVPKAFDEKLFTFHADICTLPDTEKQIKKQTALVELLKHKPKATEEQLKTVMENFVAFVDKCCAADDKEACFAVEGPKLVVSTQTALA

No constants are given. Whether binding was seen depends on the method and setting. Some results given as binding are weak or reduced against the parent protein; the word gives no strength.

Data on 2 substances can be found in paper PMC8415707 (Frontiers in Pharmacology, 2021).

As to “β-tryptase (from UniProt P20231 31-275) (enzyme)”, the binding result was “binds”.

In the case of BSA (from UniProt P02769 25-607), the binding result is “no binding”.
